The whole screen tested about 350,000 compounds, of which about 6,000 (1.7%) were called active. Inconclusive results, whose numbers are uncertain, are shown with a selection of clear calls. Rule as the data show it: active = CPE inhibition above about 20% (passing the limit was not always enough); inconclusive = no clear call, values can overlap the other calls; tested in BHK-21 cells.
Test: protection of cells from dengue 2 killing – plate reader, single concentration, primary screen (AID 651640);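 also: 0% = median of neutral control wells and 100% = median of positive control wells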
Settings: DENV2-infected cells, cytopathic effect rescue, at 9.99 µM, hits give high values

SMILES	CPE inhibition
O=S(=O)(c1ccc(F)cc1)N1CC[C@@H]2[C@@H](CO)Nc3ccc(-c4ccccc4F)cc3[C@@H]21	active: 77.9%
CN(C)C(=O)[C@@H]1[C@@H](CO)[C@@H]2Cn3c(ccc(-c4cncnc4)c3=O)[C@@H]2N1Cc1cc(F)ccc1F	inactive: 1.08%
CC(=O)Nc1cc(-c2cccc(C(=O)NCCN(C)C)c2)cn2c(-c3ccccc3)cnc12	inconclusive: 27.6%
O=C(Cc1cccc([N+](=O)[O-])c1)Nc1ccc(C(=O)N2CCCCC2)cc1	active: 81.3%
CC(C)CC#Cc1cnc2c(c1)C(=O)N([C@H](C)CO)C[C@H](C)[C@H](CN(C)C(=O)Nc1cc(F)ccc1F)O2	inconclusive: 21.6%
CCCN(C)C[C@H]1OCCCC[C@@H](C)Oc2ccc(N(C)C)cc2C(=O)N([C@@H](C)CO)C[C@H]1C	inconclusive: 65.7%
CCCn1c(=O)[nH]c(=O)c2c1nc(-c1cccs1)n2CCOC	inactive: 0.624%
CCC(=O)N(C)C[C@H]1Oc2ncc(-c3ccc(C#N)cc3)cc2C(=O)N([C@H](C)CO)C[C@H]1C	inconclusive: 68.5%
C[C@@H]1CN([C@@H](C)CO)C(=O)c2cccc(NS(=O)(=O)c3cccs3)c2O[C@H]1CN(C)S(=O)(=O)c1ccccc1	inactive: 9.22%
O=C(C[C@@H]1CC[C@H]2[C@@H](COC[C@H](O)CN2C(=O)Nc2ccc(F)cc2)O1)NCCc1ccccc1	inconclusive: 23.7%
O=C(CN1CCOCC1)N1CC2(C1)[C@H](c1ccccc1)[C@H](CO)N2Cc1ccc(F)cc1	inactive: 16%
C[C@@H]1CN([C@@H](C)CO)C(=O)c2cccc(NC(=O)NC3CCCCC3)c2O[C@@H]1CN(C)C(=O)NC1CCCCC1	inconclusive: 54.2%
Cc1cccc(OCC(=O)Nc2sc3c(c2C#N)CCC3)c1	inconclusive: 23.1%
CNC[C@H]1Oc2ccc(NC(=O)CCN3CCOCC3)cc2C(=O)N([C@H](C)CO)C[C@@H]1C	active: 27.4%
O=C1NC[C@H](c2ccccc2)N(CCc2cc(C(F)(F)F)cc(C(F)(F)F)c2)C1=O	inconclusive: 37.1%
COc1ccc(Cl)cc1Nc1nc(-c2sc(NC(=O)c3ccco3)nc2C)cs1	inactive: -4.97%
C[C@H](O)C#Cc1ccc2c(c1)O[C@H](CN(C)C(=O)C1CCC1)[C@H](C)CN([C@H](C)CO)S2(=O)=O	inactive: 11.7%
O=C(NNC(=S)Nc1ccccc1Cl)c1ccccc1Cl	inconclusive: 82.1%

SMILES	CPE inhibition
CN1C(=O)c2cc(NC(=O)c3cccc(F)c3)ccc2OC[C@@H]2O[C@@H](CC(=O)NCc3ccccc3Cl)CC[C@H]21	inactive: -7.3%
O=C(Nc1nc2c(Cl)c(Cl)ccc2s1)C1CC1	inactive: -8.14%
COCCN1CC(CNC(=O)c2cc(COc3ccc(C)c(C)c3)on2)CC1=O (stereo unspecified)	inconclusive: 22.9%
NC(CO)c1csc(NC(=O)Nc2ccccc2Cc2ccccc2)n1 (stereo unspecified)	inconclusive: 58.2%
CC(C)NC(=O)Nc1cccc2c1O[C@H](CN(C)C(=O)Nc1cccc3ccccc13)[C@H](C)CN([C@@H](C)CO)C2=O	inconclusive: 25.1%
C[C@@H]1CN([C@H](C)CO)C(=O)c2cc(NS(=O)(=O)c3ccc(F)cc3)ccc2O[C@H]1CN(C)CC1CC1	inactive: 19.2%
CC[C@]12c3[nH]c4ccc(OC)cc4c3CCN1C(=O)C(CC(=O)NCCN1CCOCC1)C[C@@H]2C(=O)N1CCN(C(=O)c2ccco2)CC1 (stereo partly specified)	inconclusive: 24.2%
CC(C)CN1CCC(=O)N([C@H](CSc2ccc(Br)cc2)Cc2ccccc2)CC1	inconclusive: 41.2%
C[C@@H]1CN([C@H](C)CO)C(=O)Cc2cc(NC(=O)Cc3ccccc3)ccc2O[C@@H]1CN(C)Cc1ccc(Cl)c(Cl)c1	active: 88.3%
COCc1cc(N2CCNC[C@H]2C)ccc1N1CCS(=O)(=O)CC1	inconclusive: 63.6%
CCc1onc(C)c1C(=O)Nc1ccc(N2CCOCC2)cc1	inactive: -3.65%
Cc1ccc(-c2nc3c(Cl)cc(C(F)(F)F)cn3c2Cc2cccc(Cl)c2)cc1	inconclusive: 28.5%
COC(=O)[C@H]1[C@H](CO)[C@H]2Cn3c(ccc(-c4ccccc4F)c3=O)[C@H]2N1C(=O)c1cnccn1	inconclusive: 58.8%
CCOc1ccc(NC(=O)C(C)N2C(=O)c3ccccc3C2=O)cc1 (stereo unspecified)	inconclusive: 32.4%
Cc1cccc(N(CC(=O)NC2CCCCC2)C(=O)c2csnn2)c1	inconclusive: 29.1%
CCn1c(=O)n(CC)c2cc(N3CCCC3)c(NC(=O)c3ccccc3)cc21	inconclusive: 25.9%
COc1ccc2c3c([nH]c2c1)[C@H](CO)N(C(=O)C1CCOCC1)CC31CCN(S(C)(=O)=O)CC1	active: 34.5%
O=C(C[C@H]1CC[C@@H](NC(=O)Nc2cc(F)ccc2F)[C@@H](CO)O1)NCCCN1CCOCC1	inconclusive: 28.6%

Reformatted with bars between the fields: part of the list above.
SMILES | CPE inhibition
C[C@@H]1CN([C@@H](C)CO)C(=O)c2cccc(NS(=O)(=O)c3cccs3)c2O[C@H]1CN(C)S(=O)(=O)c1ccccc1 | inactive: 9.22%
COCCN1CC(CNC(=O)c2cc(COc3ccc(C)c(C)c3)on2)CC1=O (stereo unspecified) | inconclusive: 22.9%
